Laboratory results taken from paper PMC6189638.
These are yes or no findings as the source states them, for the method shown.

Molecular target: human soluble Epoxide Hydrolase C-terminal domain (hsEH CTD) (human) (UniProt P34913)
Experiment: SEC; HiLoad 16/600 Superdex 75pg; 137 mM NaCl, 2.7 mM KCl, 10 mM Na2HPO4, 3 mM KH2PO4, pH 7.4, 0.2 mM EDTA, 1 mM DTT, 5% glycerol; final purification step; both purified

B1: human soluble Epoxide Hydrolase C-terminal domain (hsEH CTD) (domain or fragment, UniProt P34913 230-555)
chain: TSCNPSDMSHGYVTVKPRVRLHFVELGSGPAVCLCHGFPESWYSWRYQIPALAQAGYRVLAMDMKGYGESSAPPEIEEYCMEVLCKEMVTFLDKLGLSQAVFIGHDWGGMLVWYMALFYPERVRAVASLNTPFIPANPNMSPLESIKANPVFDYQLYFQEPGVAEAELEQNLSRTFKSLFRASDESVLSMHKVCEAGGLFVNSPEEPSLSRMVTEEEIQFYVQQFKKSGFRGPLNWYRNMERNWKWACKSLGRKILIPALMVTAEKDFVLVPQMSQHMEDWIPHLKRGHIEDCGHWTQMDKPTEVNQILIKWLDSDARNPPVVSKM
binding: no binding
